In patent US20180318392A1 one finds binding data, which are given here for 3 substances.

Chains of the proteins cited; added tags and fusions are not shown. Lines headed by an entry give the natural chain unless they say otherwise; changes in a name come on top. Residues count along the entry.
UniProt P07204, residues 19-515: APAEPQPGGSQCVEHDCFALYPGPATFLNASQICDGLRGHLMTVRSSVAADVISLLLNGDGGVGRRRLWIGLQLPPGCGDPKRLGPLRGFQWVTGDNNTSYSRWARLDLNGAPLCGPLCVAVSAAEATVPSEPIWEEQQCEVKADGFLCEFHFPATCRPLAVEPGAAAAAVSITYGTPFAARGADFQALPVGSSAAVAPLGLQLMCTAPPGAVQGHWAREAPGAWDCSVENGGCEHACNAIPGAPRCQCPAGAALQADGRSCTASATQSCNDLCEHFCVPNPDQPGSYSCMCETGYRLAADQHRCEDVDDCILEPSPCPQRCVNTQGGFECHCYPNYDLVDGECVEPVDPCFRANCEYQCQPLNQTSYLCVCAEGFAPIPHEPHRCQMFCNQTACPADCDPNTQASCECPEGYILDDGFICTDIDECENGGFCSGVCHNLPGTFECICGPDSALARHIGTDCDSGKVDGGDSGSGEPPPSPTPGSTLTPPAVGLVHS
UniProt Q15389, residues 16-498: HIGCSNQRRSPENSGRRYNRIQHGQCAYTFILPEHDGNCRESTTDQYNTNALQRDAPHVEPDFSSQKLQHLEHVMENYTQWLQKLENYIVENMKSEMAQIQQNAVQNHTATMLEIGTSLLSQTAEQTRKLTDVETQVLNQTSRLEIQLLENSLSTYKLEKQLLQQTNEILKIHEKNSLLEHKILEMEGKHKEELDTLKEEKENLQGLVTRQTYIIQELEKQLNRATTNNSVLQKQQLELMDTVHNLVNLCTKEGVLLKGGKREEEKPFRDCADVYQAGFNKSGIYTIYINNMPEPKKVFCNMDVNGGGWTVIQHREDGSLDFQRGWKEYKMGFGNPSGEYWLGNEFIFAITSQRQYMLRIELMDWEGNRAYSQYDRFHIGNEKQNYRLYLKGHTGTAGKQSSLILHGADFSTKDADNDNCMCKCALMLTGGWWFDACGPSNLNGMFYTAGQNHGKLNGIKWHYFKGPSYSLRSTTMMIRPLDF
UniProt O15123, residues 19-496: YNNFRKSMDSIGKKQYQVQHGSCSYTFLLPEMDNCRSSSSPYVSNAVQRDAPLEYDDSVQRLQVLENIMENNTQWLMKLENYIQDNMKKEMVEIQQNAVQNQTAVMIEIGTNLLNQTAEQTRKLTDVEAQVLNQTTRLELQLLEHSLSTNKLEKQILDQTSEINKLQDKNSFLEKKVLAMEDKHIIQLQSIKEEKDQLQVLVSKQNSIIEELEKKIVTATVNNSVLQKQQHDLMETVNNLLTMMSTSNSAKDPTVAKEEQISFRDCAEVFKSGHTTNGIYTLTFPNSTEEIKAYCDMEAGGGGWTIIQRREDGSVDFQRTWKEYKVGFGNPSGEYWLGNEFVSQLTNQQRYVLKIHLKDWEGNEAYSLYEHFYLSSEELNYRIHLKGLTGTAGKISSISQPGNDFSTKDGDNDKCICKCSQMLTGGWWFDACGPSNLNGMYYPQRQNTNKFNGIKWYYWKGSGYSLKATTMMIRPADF
UniProt Q02763: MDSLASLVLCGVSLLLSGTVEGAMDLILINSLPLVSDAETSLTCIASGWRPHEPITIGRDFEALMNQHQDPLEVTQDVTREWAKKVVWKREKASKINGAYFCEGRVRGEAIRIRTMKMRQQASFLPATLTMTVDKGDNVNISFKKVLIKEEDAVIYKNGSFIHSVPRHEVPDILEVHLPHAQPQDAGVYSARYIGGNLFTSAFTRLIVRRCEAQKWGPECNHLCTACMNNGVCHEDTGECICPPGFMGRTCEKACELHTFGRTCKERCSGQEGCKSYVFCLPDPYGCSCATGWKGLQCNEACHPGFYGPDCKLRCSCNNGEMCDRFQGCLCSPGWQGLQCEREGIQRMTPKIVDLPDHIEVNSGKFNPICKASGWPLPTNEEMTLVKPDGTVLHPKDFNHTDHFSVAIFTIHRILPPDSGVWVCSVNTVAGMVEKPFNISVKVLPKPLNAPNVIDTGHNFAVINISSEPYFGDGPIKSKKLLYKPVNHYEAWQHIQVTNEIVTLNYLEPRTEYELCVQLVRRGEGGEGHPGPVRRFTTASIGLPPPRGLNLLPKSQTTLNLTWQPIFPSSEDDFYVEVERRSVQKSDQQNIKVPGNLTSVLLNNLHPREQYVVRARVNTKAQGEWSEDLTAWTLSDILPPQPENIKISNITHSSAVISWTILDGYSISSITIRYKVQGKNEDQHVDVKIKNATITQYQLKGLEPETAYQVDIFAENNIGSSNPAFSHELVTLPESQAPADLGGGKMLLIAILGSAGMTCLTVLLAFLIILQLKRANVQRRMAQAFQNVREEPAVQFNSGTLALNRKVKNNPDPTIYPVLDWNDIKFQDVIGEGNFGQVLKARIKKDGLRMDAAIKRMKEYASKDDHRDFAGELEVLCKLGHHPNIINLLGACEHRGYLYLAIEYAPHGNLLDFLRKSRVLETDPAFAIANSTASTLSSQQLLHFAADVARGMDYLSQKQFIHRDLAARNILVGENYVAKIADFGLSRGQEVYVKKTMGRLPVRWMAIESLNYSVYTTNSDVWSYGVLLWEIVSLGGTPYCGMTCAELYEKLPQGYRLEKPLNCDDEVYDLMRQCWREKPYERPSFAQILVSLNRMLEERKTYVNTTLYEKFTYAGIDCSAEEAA

Results are given in words; binding and its absence hold for the method and conditions named. In cells and extracts the contact can be indirect. Some results given as binding are weak or reduced against the parent protein; the word gives no strength.

Experiment [1] addresses soluble extracellular domain of human TM (R&D Systems) (human) (UniProt P07204). The experiment is described as follows: competition pull-down, western blot (FIG. 4A legend). In general terms: A western blot detects proteins with antibodies after separation by electrophoresis.
For experiment [2] the target is unchanged. Kind of experiment: competition pull-down, 0.25, 0.5 or 1.0 µM Ang1 against 5 nM thrombin (competitor) on 100 nM His-tagged soluble TM, western blot.
Experiment [3] shares this target. Kind of experiment: competition pull-down, western blot (FIG. 4B legend).
The target is the same in experiment [4]. The experiment is described as follows: competition pull-down, 0.25, 0.5 or 1.0 µM Ang2 against 5 nM thrombin (competitor) on 100 nM His-tagged soluble TM, western blot.
The target in experiment [5] is BowAng1. The experiment is described as follows: pull-down competition, western blot (FIG. 1C legend).
For experiment [6], the target named is BowAng2. The description is as above.
The target of experiment [7] is BowAng1. The experiment is described as follows: pull-down competition, 2 µM soluble Tie2 against 100 nM soluble TM (competitor), western blot.
The target of experiment [8] is BowAng2. The description is as above.

In the case of “native human Ang1 (R&D Systems) (from UniProt Q15389 16-498) (ligand)”, the binding entry in experiment [1] and in experiment [2] was “binds” throughout.
On to “native human Ang2 (R&D Systems) (from UniProt O15123 19-496) (ligand)”, for which the binding entry in experiment [3] and in experiment [4] was “binds” throughout.
Turning to “soluble extracellular domain of human Tie2 (produced at Regeneron) (from UniProt Q02763 23-748) (receptor)”, the binding entry with BowAng1 [5], in the experiment with BowAng2 [6], in the experiment with BowAng1 [7] and with BowAng2 [8] was “binds” in each case.
